At least one compound was matched to its structure with a doubt left. Some entries share one result that the patent states for a list of compounds. Residues, ends and D or L forms follow the SMILES beside them.
Columns and labels:
[1] = target: T1, FL_Reg1 (full-length human Regnase-1) phosphorylation by IKKβ (Homo sapiens, UniProt Q5D1E8); assay: Regnase-1 phosphorylation inhibition by compounds (AlphaScreen), IKKβ, full-length Regnase-1; type: biochemical; details: concentration-dependent
T1 construct: made in house; host or cells: Expi293 cells
T1 sequence (Q5D1E8 1-599): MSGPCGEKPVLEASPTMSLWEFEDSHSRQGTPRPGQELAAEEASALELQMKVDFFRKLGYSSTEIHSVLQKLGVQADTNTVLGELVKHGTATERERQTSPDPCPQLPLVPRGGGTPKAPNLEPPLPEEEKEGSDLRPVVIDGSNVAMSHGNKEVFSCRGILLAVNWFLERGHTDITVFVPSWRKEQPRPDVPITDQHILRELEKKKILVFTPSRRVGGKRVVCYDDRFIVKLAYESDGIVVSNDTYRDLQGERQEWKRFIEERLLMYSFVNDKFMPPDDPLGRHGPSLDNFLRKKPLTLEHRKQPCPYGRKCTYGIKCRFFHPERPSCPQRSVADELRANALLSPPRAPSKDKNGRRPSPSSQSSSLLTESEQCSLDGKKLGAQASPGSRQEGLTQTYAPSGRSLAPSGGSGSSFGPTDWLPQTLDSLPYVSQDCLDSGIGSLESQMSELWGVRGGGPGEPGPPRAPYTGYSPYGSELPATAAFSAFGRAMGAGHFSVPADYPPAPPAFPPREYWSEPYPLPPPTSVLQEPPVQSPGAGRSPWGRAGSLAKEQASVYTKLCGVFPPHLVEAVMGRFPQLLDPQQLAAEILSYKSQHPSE
From the text: (§1) The full-length sequence of human Regnase-1 (UniProt ID: Q5D1E8) was used to prepare a construct having a FLAG tag on the N-terminal side and a recognition sequence for biotin ligase BirA on the C-terminal side (FL_Reg1) as a target protein. The above-mentioned Regnase-1 was expressed in mammalian Expi293 cells, purified with FLAG M2 agarose, and isolated by gel filtration chromatography. When biotinylation was required, methods from nonpatent documents (BMC biotechnology, 2008,8,41; and Protein Science, 1999,8,921-929) were used. […]
(§2) Using Kinase assay buffer III (manufactured by SignalChem) supplemented with 2 mM DTT, 100 μM sodium vanadate, and 2 mM manganese chloride, kinase (IKKβ (manufactured by SignalChem) or TBK1 (manufactured by SignalChem)) and Regnase-1 were reacted in the presence of 10 μM ATP at room temperature for 2 hours to perform a phosphorylation reaction.
(§3) Phosphorylated Regnase-1 was detected by the AlphaScreen system. After each of the above-mentioned phosphorylated Regnase-1 antibodies was added and reacted at room temperature for one hour, anti-FLAG AlphaLISA Acceptor Beads (manufactured by PerkinElmer) and Protein A AlphaScreen Donor Beads (manufactured by PerkinElmer) were added, and EnVision (manufactured by PerkinElmer) was used to measure the excited luminescence. As a result, phosphorylated Regnase-1 produced by the phosphorylation reaction by kinase was specifically detected, and signals were confirmed to be enhanced in a manner dependent on Regnase-1 and kinase concentrations (FIG. 24).
(§4) After mixing 2 nM of the above-mentioned Regnase-1 and the compound, phosphorylated Regnase-1 produced by the phosphorylation reaction was detected by the AlphaScreen system. As the results, the inhibition rate was calculated from the signals obtained when adding the compound at each concentration, by defining the signal obtained with Regnase-1 alone to be 100% inhibition rate, and the signal obtained when the same amount of solvent (DMSO) is added in place of the compound as 0% inhibition rate. The 50% inhibition concentration (μM) was calculated from the obtained dose response curve (Table 11).

FL_Reg1 = target: T2, FL_Reg1 (Homo sapiens, UniProt Q5D1E8); assay: Binding of Regnase-1 and peptide compounds (affinity mass analysis, SEC then LC/MS); details: 1 μM FL_Reg1, final compound concentration 1 μM, 23° C. for one hour
T2 construct: made in house; host or cells: Expi293 cells
T2 sequence (Q5D1E8 1-599): T1 sequence (Q5D1E8 1-599)
Experimental: To a 96 PP plate (Greiner bio-one, 651201) coated with lipidure (Lipidure-CM5206) (NOF CORPORATION, 71S42000001), 2 μL of Tris-Buffer (25 mM Tris-NaOH pH 8.3, 300 mM NaCl, 1 mM DTT, 1 mM EDTA, 1% DMSO) was dispensed, and then 1 mM DMSO sample was added at 20 nL each with a LABCYTE ECHO (registered trademark) acoustic dispensing system. Furthermore, 18 μL of protein prepared at 1 μM FL_Reg1 in advance using Tris-Buffer was added (final compound concentration: 1 μM), and the mixture was incubated in the dark at 23° C. for one hour. Then, to a 96-well, 400 μL, Hydrophilic PVDF 0.45 μm, Long drip (Harvard, 74-5556), 100 μL of P-2, Fine (Bio-Rad, 1504114) which had been swollen in advance was added, and conditioning was performed by centrifuging several times at 2000× G for two minutes using the buffer. Next, 20 μL of the sample after incubation was added to the conditioned 96-well, 400 μL, Hydrophilic PVDF 0.45 μm, Long drip, and SEC treatment was performed by centrifugation at 2000×G for two minutes. To the liquid from SEC, 32 μL of acetonitrile (LC/MS grade, FUJIFILM Wako Pure Chemical Industries, Ltd.) supplemented with 0.1% formic acid (LC/MS grade, 067-04531, FUJIFILM Wako Pure Chemical Industries, Ltd.) was added, and this was centrifuged at 1800×G for five minutes, and the supernatant was used as an analysis sample for LC/MS measurement. Binding to Regnase-1 was detected for all of the peptide compounds, PP1 to PP25.

[2] = target: T3, FL_Reg1 (full-length human Regnase-1) phosphorylation by TBK1 (Homo sapiens, UniProt Q5D1E8); assay: Regnase-1 phosphorylation inhibition by compounds (AlphaScreen), TBK1, full-length Regnase-1; type: biochemical; details: concentration-dependent
T3 construct: made in house; host or cells: Expi293 cells
T3 sequence (Q5D1E8 1-599): T1 sequence (Q5D1E8 1-599)
From the text: as §1, §2, §3, §4

SMILES | inhibition of phosphorylation of full-length Regnase-1 (FL_Reg1) by IKKβ, in words [1] | AS-MS ratio(%) (FL_Reg1) | inhibition of phosphorylation of full-length Regnase-1 (FL_Reg1) by TBK1, in words [2]
CC[C@H](C)[C@@H]1NC(=O)[C@H](CCCCN)NC(=O)[C@H](Cc2ccc(O)cc2)NC(=O)[C@H](Cc2c[nH]c3ccccc23)NC(=O)[C@H](CO)NC(=O)[C@H](CO)NC(=O)[C@H](Cc2c[nH]cn2)NC(=O)CNC(=O)[C@H](Cc2ccc(O)cc2)NC(=O)[C@H]([C@@H](C)O)NC(=O)[C@@H](C)N(C)C(=O)C[C@@H](C(=O)N2CCCC2)NC(=O)[C@H](Cc2c[nH]c3ccccc23)NC1=O [PP9] (HELM PEPTIDE1{[C[C@H](C(=O)[*:2])N(C)[*:1]].T.Y.G.H.S.S.W.Y.K.I.W.D.[C1CCN([*:1])C1]}$PEPTIDE1,PEPTIDE1,1:R1-13:R3$$$V2.0) | all showed inhibitory activity | 14.8 | all showed inhibitory activity
CC[C@H](C)[C@@H]1NC(=O)[C@H](CC(=O)O)NC(=O)[C@H](C)N(C)C(=O)C[C@@H](C(=O)N2CCCC2)NC(=O)[C@H](Cc2ccc(O)cc2)NC(=O)[C@H](CC(=O)O)NC(=O)[C@H](Cc2c[nH]c3ccccc23)NC(=O)[C@H](Cc2ccc(O)cc2)NC(=O)[C@H](CC(=O)O)NC(=O)[C@H](Cc2ccccc2)NC(=O)[C@H](Cc2c[nH]c3ccccc23)NC1=O [PP18] (HELM PEPTIDE1{[meA].D.I.W.F.D.Y.W.D.Y.D.[C1CCN([*:1])C1]}$PEPTIDE1,PEPTIDE1,1:R1-11:R3$$$V2.0) | all showed inhibitory activity | 71.6 | all showed inhibitory activity
CC[C@H](C)[C@@H]1NC(=O)[C@H](Cc2c[nH]c3ccccc23)NC(=O)[C@H](CCC(N)=O)NC(=O)[C@H](Cc2ccc(O)cc2)NC(=O)[C@H](C(C)C)NC(=O)[C@H](C)NC(=O)[C@H](Cc2ccc(O)cc2)NC(=O)[C@H](CCCNC(=N)N)NC(=O)[C@H](C)N(C)C(=O)C[C@@H](C(=O)N2CCCC2)NC(=O)[C@@H]2CCCN2C(=O)[C@H](Cc2ccc(O)cc2)NC1=O [PP12] (HELM PEPTIDE1{[meA].R.Y.A.V.Y.Q.W.I.Y.P.D.[C1CCN([*:1])C1]}$PEPTIDE1,PEPTIDE1,1:R1-12:R3$$$V2.0) | all showed inhibitory activity | 21.0 | all showed inhibitory activity
CC[C@H](C)[C@@H]1NC(=O)[C@H](Cc2c[nH]c3ccccc23)NC(=O)[C@@H](Cc2ccccc2)NC(=O)[C@H](CCCCN)NC(=O)[C@H](C)N(C)C(=O)C[C@@H](C(=O)N2CCCC2)NC(=O)[C@H](CCC(=O)O)NC(=O)[C@H](Cc2ccccc2)NC(=O)[C@H](CO)NC(=O)[C@H](Cc2c[nH]cn2)NC(=O)[C@H](Cc2c[nH]cn2)NC1=O [PP20] (HELM PEPTIDE1{[meA].K.[dF].W.I.H.H.S.F.E.D.[C1CCN([*:1])C1]}$PEPTIDE1,PEPTIDE1,1:R1-11:R3$$$V2.0) | all showed inhibitory activity | 85.0 | all showed inhibitory activity

Next, values leading:

inhibition of phosphorylation of full-length Regnase-1 (FL_Reg1) by IKKβ, in words [1] | AS-MS ratio(%) (FL_Reg1) | inhibition of phosphorylation of full-length Regnase-1 (FL_Reg1) by TBK1, in words [2] | SMILES
all showed inhibitory activity | 6.2 | all showed inhibitory activity | CC[C@H](C)[C@@H]1NC(=O)[C@H](CC(N)=O)NC(=O)[C@H](Cc2ccc(O)cc2)NC(=O)[C@H](Cc2c[nH]c3ccccc23)NC(=O)[C@H](CO)NC(=O)[C@H](CC(N)=O)NC(=O)[C@H](Cc2c[nH]c3ccccc23)NC(=O)[C@H](Cc2ccc(O)cc2)NC(=O)[C@H](CCCCN)NC(=O)[C@H](CO)NC(=O)[C@@H](C)N(C)C(=O)C[C@@H](C(=O)N2CCCC2)NC(=O)[C@H](Cc2c[nH]c3ccccc23)NC1=O [PP8] (HELM PEPTIDE1{[C[C@H](C(=O)[*:2])N(C)[*:1]].S.K.Y.W.N.S.W.Y.N.I.W.D.[C1CCN([*:1])C1]}$PEPTIDE1,PEPTIDE1,1:R1-13:R3$$$V2.0)
all showed inhibitory activity | 51.1 | all showed inhibitory activity | CC[C@H](C)[C@@H]1NC(=O)[C@H](Cc2c[nH]c3ccccc23)NC(=O)[C@H](C)N(C)C(=O)C[C@@H](C(=O)N2CCCC2)NC(=O)[C@H](CCC(=O)O)NC(=O)[C@H](CC(N)=O)NC(=O)[C@H](Cc2c[nH]c3ccccc23)NC(=O)[C@H](Cc2ccccc2)NC(=O)[C@H](CC(=O)O)NC(=O)[C@H](Cc2c[nH]c3ccccc23)NC1=O [PP24] (HELM PEPTIDE1{[meA].W.I.W.D.F.W.N.E.D.[C1CCN([*:1])C1]}$PEPTIDE1,PEPTIDE1,1:R1-10:R3$$$V2.0)
all showed inhibitory activity | 2.1 | all showed inhibitory activity | CC[C@H](C)[C@@H]1NC(=O)[C@H](CCCCN)NC(=O)[C@H](Cc2ccc(O)cc2)NC(=O)[C@H](Cc2ccccc2)NC(=O)[C@H](C(C)C)NC(=O)[C@H](C)N(C)C(=O)C[C@@H](C(=O)N2CCCC2)NC(=O)[C@H](Cc2c[nH]c3ccccc23)NC(=O)[C@H](CC(N)=O)NC(=O)[C@H](Cc2ccc(O)cc2)NC(=O)[C@H](Cc2c[nH]c3ccccc23)NC1=O [PP19] (HELM PEPTIDE1{[meA].V.F.Y.K.I.W.Y.N.W.D.[C1CCN([*:1])C1]}$PEPTIDE1,PEPTIDE1,1:R1-11:R3$$$V2.0)
all showed inhibitory activity | 4.2 | all showed inhibitory activity | CC[C@H](C)[C@@H]1NC(=O)[C@H](Cc2c[nH]c3ccccc23)NC(=O)[C@H](CO)NC(=O)[C@H](Cc2c[nH]c3ccccc23)NC(=O)[C@H](C(C)C)NC(=O)CNC(=O)[C@H](Cc2ccccc2)NC(=O)[C@H](CCCNC(=N)N)NC(=O)[C@H](C)N(C)C(=O)C[C@@H](C(=O)N2CCCC2)NC(=O)[C@@H]2CCCN2C(=O)[C@H](Cc2ccc(O)cc2)NC1=O [PP14] (HELM PEPTIDE1{[meA].R.F.G.V.W.S.W.I.Y.P.D.[C1CCN([*:1])C1]}$PEPTIDE1,PEPTIDE1,1:R1-12:R3$$$V2.0)

Reference: patent publication US20250018014A1, “METHOD FOR TREATING AND/OR PREVENTING REGNASE-1-RELATED DISEASE” (OSAKA UNIVERSITY, priority 2018, published 2025)
